Experimental data: PubChem BioAssay AID1508597 (Cure First, 2020)
Shown is a random part of the about 2,100 reagents, in one setting of the screen. 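Calls flag viability under 80% in either arm, not effects specific to rucaparib; the reference for percent is not stated.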 The record does not give: the 100% reference.

- Purpose: 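Knock-downs altering ovarian cancer cell survival with or without PARP inhibitor rucaparib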 (primary screen)
- System: human ovarian carcinoma lines grown from tumours: OCI-P5x (papillary serous) and OCI-C5x (clear cell)
- Knock-down reagent: siRNA pool against human genes, 1.25 pmol siRNA per well
- Time to read-out: 72 h or 96 h, depending on the cell culture
- Challenge: rucaparib 20 µM (about IC30) or vehicle, present until read-out
- Rucaparib or vehicle: Vehicle
- Cell line: OCI-P5x (serous)
- Measurement: 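ATP luminescence measured at 72 or 96 h according to the culture, then normalised and expressed as percent viability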
- Direction: viability, normalised: higher = more viable cells remaining
- Active means: 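a well counts as a hit if its normalised viability is under 80 percent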
- Calls: active = viability under 80%; inactive = viability 80% or more

Target gene | technical replicate | viability, normalised (%) | call
TDRD6 (tudor domain containing 6) | 1 | 89.9 | inactive
TDRD6 (tudor domain containing 6) | 2 | 96.1 | inactive
TDRD6 (tudor domain containing 6) | 3 | 91.5 | inactive
BRSK2 (BR serine/threonine kinase 2) | 1 | 57 | active
BRSK2 (BR serine/threonine kinase 2) | 2 | 38.9 | active
BRSK2 (BR serine/threonine kinase 2) | 3 | 54.6 | active
PTGR1 (prostaglandin reductase 1) | 1 | 63.2 | active
PTGR1 (prostaglandin reductase 1) | 2 | 63.8 | active
PTGR1 (prostaglandin reductase 1) | 3 | 151 | inactive
PRKACA (protein kinase cAMP-activated catalytic subunit alpha) | 1 | 71.3 | active
PRKACA (protein kinase cAMP-activated catalytic subunit alpha) | 2 | 64.2 | active
PRKACA (protein kinase cAMP-activated catalytic subunit alpha) | 3 | 57.4 | active
FTO (FTO alpha-ketoglutarate dependent dioxygenase) | 1 | 84.3 | inactive
FTO (FTO alpha-ketoglutarate dependent dioxygenase) | 2 | 98.1 | inactive
FTO (FTO alpha-ketoglutarate dependent dioxygenase) | 3 | 91.7 | inactive
MPHOSPH8 (M-phase phosphoprotein 8) | 1 | 63.1 | active
MPHOSPH8 (M-phase phosphoprotein 8) | 2 | 69 | active
MPHOSPH8 (M-phase phosphoprotein 8) | 3 | 65.4 | active
SIRT4 (sirtuin 4) | 1 | 43.5 | active
SIRT4 (sirtuin 4) | 2 | 61.9 | active
SIRT4 (sirtuin 4) | 3 | 64.1 | active
PI4K2A (phosphatidylinositol 4-kinase type 2 alpha) | 1 | 71.1 | active
PI4K2A (phosphatidylinositol 4-kinase type 2 alpha) | 2 | 65.8 | active
PI4K2A (phosphatidylinositol 4-kinase type 2 alpha) | 3 | 67.2 | active
DICER1 (dicer 1, ribonuclease III) | 1 | 64.3 | active
DICER1 (dicer 1, ribonuclease III) | 2 | 76.8 | active
DICER1 (dicer 1, ribonuclease III) | 3 | 68.9 | active
OARD1 (O-acyl-ADP-ribose deacylase 1) | 1 | 50.3 | active
OARD1 (O-acyl-ADP-ribose deacylase 1) | 2 | 76.3 | active
OARD1 (O-acyl-ADP-ribose deacylase 1) | 3 | 44 | active
CSNK1G2 (casein kinase 1 gamma 2) | 1 | 69.3 | active
CSNK1G2 (casein kinase 1 gamma 2) | 2 | 82.5 | inactive
CSNK1G2 (casein kinase 1 gamma 2) | 3 | 56.1 | active
FOXA3 (forkhead box A3) | 1 | 60.9 | active
FOXA3 (forkhead box A3) | 2 | 75.2 | active
FOXA3 (forkhead box A3) | 3 | 61.8 | active
PDE6B (phosphodiesterase 6B) | 1 | 74.1 | active
PDE6B (phosphodiesterase 6B) | 2 | 69.8 | active
PDE6B (phosphodiesterase 6B) | 3 | 66.9 | active
